The list does not hold the whole screen: it is rich in T/C values a quarter to a half above the control, in often repeated tests (any T/C) and in doses without a T/C. Further doses and runs are listed elsewhere. T/C gives the treated animals as a percentage of the vehicle group. Some entries give survivors of the animals treated and no T/C: the source files T/C as zero there, which appears to mark a toxic dose or a test without result, not a measured value. Some doses without a T/C left all or most animals alive at the check, yet need not have been tolerated: survival well below the control is almost never listed, so the zero probably covers shortened survival too. Counts of survivors are from the toxicity check (mostly the fifth day) where no day follows; animals may have died later. Schedules are NCI's codes, taken here to give the interval after Q, in days (D) or hours (H), and the number of doses after X. Some entries were tested several times; the results are listed from low to high. For survival time, this PubChem deposit counts one and a half times the control or more as active, and values a quarter to a half above the control carry no call in these data; other NCI protocols may use other cut-offs. Some T/C values are followed by the survivors on the day toxicity was checked, most often the fifth; without a count, all were alive then.

The test concerns BDF1 mice, B16 melanoma ip, median survival T/C. Put plainly: NCI In Vivo Anticancer Drug Screen. Data for tumor model B16 Melanoma (intraperitoneal) in B6D2F1 (BDF1) mice. Conditions: T/C endpoint: median survival time, higher T/C = longer survival. In short, it runs like this: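 In this screen, activity was judged from survival or tumor size in treated versus vehicle-treated tumor-bearing mice, reported as T/C.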

Where [1] appears, read: dose: 50.0 mg/kg/injection, schedule: Q01DX009 (ip), vehicle: saline.
Setting [2] is: dose: 100.0 mg/kg/injection, schedule: Q01DX009 (ip), vehicle: saline.
Setting [3] is: dose: 400.0 mg/kg/injection, schedule: Q01DX009 (ip), vehicle: saline.
Setting [4] is: dose: 25.0 mg/kg/injection, schedule: Q01DX009 (ip), vehicle: saline with Tween-80.
The mark [5] stands for this setting: dose: 50.0 mg/kg/injection, schedule: Q01DX009 (ip), vehicle: saline with Tween-80.
Setting [6] is: dose: 100.0 mg/kg/injection, schedule: Q01DX009 (ip), vehicle: saline with Tween-80.
The mark [7] stands for this setting: dose: 200.0 mg/kg/injection, schedule: Q01DX009 (ip), vehicle: saline with Tween-80.
Setting [8] is: dose: 100.0 mg/kg/injection, schedule: Q01DX009 (ip), vehicle: Klucel (hydroxypropylcellulose) (HPC).
Setting [9] is: dose: 200.0 mg/kg/injection, schedule: Q01DX009 (ip), vehicle: saline.
Setting [10] is: dose: 6.25 mg/kg/injection, schedule: Q01DX009 (ip), vehicle: saline.
Setting [11] is: dose: 12.5 mg/kg/injection, schedule: Q01DX009 (ip), vehicle: saline.
The mark [12] stands for this setting: dose: 400.0 mg/kg/injection, schedule: Q01DX009 (ip), vehicle: saline with Tween-80.
The mark [13] stands for this setting: dose: 400.0 mg/kg/injection, schedule: Q01DX009 (ip), vehicle: Klucel (hydroxypropylcellulose) (HPC).

Regarding `O=S(=O)([O-])NC1CCCCC1.O=S(=O)([O-])NC1CCCCC1.[Hg+2].[Hg+2].[Hg+2].[O-2].[O-2]`, the survivor count is, setting by setting: (dose: 2.0 mg/kg/injection, schedule: Q01DX009 (ip), vehicle: saline) 7 of 10 and 10 of 10; (dose: 4.0 mg/kg/injection, schedule: Q01DX009 (ip), vehicle: saline) 3 of 10; (dose: 8.0 mg/kg/injection, schedule: Q01DX009 (ip), vehicle: saline) 2 of 10; (dose: 16.0 mg/kg/injection, schedule: Q01DX009 (ip), vehicle: saline) 0 of 10.

Turning to `COc1cc(C(=O)OCCCN2CCOCC2)cc(OC)c1OC`, the survivor count by setting is: (dose: 25.0 mg/kg/injection, schedule: Q01DX009 (ip), vehicle: saline) 10 of 10; under setting [1], 10 of 10; under setting [2], 10 of 10; under setting [3], 10 of 10.

As to `CC(=O)CC(C)=NCC(C)N=C(C)CC(C)=O.c1cc[c]([Sn][c]2ccccc2)cc1` (centres undefined), the T/C is, setting by setting: (dose: 1.25 mg/kg/injection, schedule: Q04DX003 (ip), vehicle: saline with Tween-80) 128 % of control; (dose: 2.5 mg/kg/injection, schedule: Q04DX003 (ip), vehicle: saline with Tween-80) 130 % of control.

Consider `COc1cccc2c1C(=O)c1c(O)c3c(c(O)c1C2=O)C[C@@](O)(/C(C)=N/NC(=O)c1ccc(Cl)cc1)C[C@@H]3OC1CC(N)C(O)C(C)O1` (some centres undefined), for which the T/C (dose: 5.0 mg/kg/injection, schedule: Q01DX001 (ip), vehicle: water) was 126 % of control [7 of 10 alive]. Also, the survivor count reads like this: (dose: 16.0 mg/kg/injection, schedule: Q01DX009 (ip), vehicle: suspension in saline) 10 of 10; (dose: 20.0 mg/kg/injection, schedule: Q01DX001 (ip), vehicle: water) 5 of 10; (dose: 40.0 mg/kg/injection, schedule: Q01DX001 (ip), vehicle: water) 1 of 10 and 9 of 10; (dose: 80.0 mg/kg/injection, schedule: Q01DX001 (ip), vehicle: water) 7 of 10.

On to `COc1cc(C[C@H]2c3cc(OC)c(OC)cc3CCN2C)c(Oc2cc3c(cc2OC)-c2c(OC)c(OC)cc4c2[C@H](C3)N(C)CC4)cc1OC`, for which the T/C is 92 % of control (dose: 25.0 mg/kg/injection, schedule: Q01DX009 (ip), vehicle: saline with Tween-80, evaluated on day 45) and 89 % of control (dose: 25.0 mg/kg/injection, schedule: Q01DX009 (ip), vehicle: saline with Tween-80, evaluated on day 60). For the same molecule, the survivor count by setting is: under setting [4], 10 of 10 and 6 of 6; under setting [5], 5 of 6, 9 of 10, 6 of 6; under setting [6], 5 of 6; under setting [7], 6 of 6.

Consider `O=C1c2ccccc2C(=O)N1CC[P+](c1ccccc1)(c1ccccc1)c1ccccc1`, for which the survivor count is on record as 3 of 10 (dose: 25.0 mg/kg/injection, schedule: Q01DX009 (ip), vehicle: water); 0 of 10 (dose: 50.0 mg/kg/injection, schedule: Q01DX009 (ip), vehicle: water); 0 of 10 (dose: 100.0 mg/kg/injection, schedule: Q01DX009 (ip), vehicle: water).

In the case of `CN(C)CCCC1c2ccccc2Oc2ccc(C(F)(F)F)cc21` (centres undefined), the survivor count under setting [1] was 10 of 10.

As for `S=c1[nH]nc(NC2CCCCC2)s1`, the survivor count is, setting by setting: under setting [5], 6 of 6; under setting [8], 9 of 10; under setting [6], 6 of 6; under setting [7], 6 of 6; (dose: 400.0 mg/kg/injection, schedule: Q04DX003 (ip), vehicle: Klucel (hydroxypropylcellulose) (HPC)) 6 of 10.

Consider `NNC(=O)c1ccncc1`, for which the survivor count is on record as 6 of 10 under setting [9] and 1 of 10 (dose: 256.0 mg/kg/injection, schedule: Q01DX009 (ip), vehicle: saline).

Consider `CN1CCC(C=C2c3ccccc3CCc3ccccc32)C1` (centres undefined), for which the survivor count reads like this: under setting [10], 10 of 10; under setting [11], 10 of 10.

Take `CCc1ncnc2cc(OCC3CO3)c(OC)cc12` (centres undefined): the T/C runs as follows: under setting [10], 128 % of control; (dose: 12.5 mg/kg/injection, schedule: Q01DX009 (ip), vehicle: saline with Tween-80) 128 % of control; under setting [11], 143 % of control; under setting [4], 149 % of control; (dose: 40.0 mg/kg/injection, schedule: Q04DX003 (ip), vehicle: other) 125 % of control; under setting [1], 143 % of control. For the same molecule, the T/C (dose: 80.0 mg/kg/injection, schedule: Q04DX003 (ip), vehicle: other) was 145 % of control [9 of 10 alive on day 10]. The survivor count by setting is: under setting [5], 10 of 10; under setting [6], 7 of 10; under setting [2], 10 of 10.

Regarding `O=C1C(=O)c2cccc3cccc1c23`, the survivor count under setting [1] is 10 of 10, the survivor count under setting [6] is reported as 10 of 10, the survivor count under setting [7] is on record as 9 of 10 and the survivor count under setting [12] is 10 of 10.

Regarding `CC(C)(C)OC(=O)NC(Cc1ccc(OCc2c(Cl)cccc2Cl)cc1)C(=O)O` (centres undefined), under setting [7], the survivor count is on record as 9 of 10.

With `CN(C)CC/C=C1\c2ccccc2Sc2ccc(Cl)cc21`, the survivor count (dose: 0.97 mg/kg/injection, schedule: Q01DX009 (ip), vehicle: Klucel (hydroxypropylcellulose) (HPC)) is 10 of 10.

Consider `CCc1cc(O)cc(C)c1Cl`, for which the survivor count runs as follows: under setting [6], 10 of 10; under setting [7], 10 of 10.

Consider `O=C(NN=C1CCCCC1)c1ccccc1`, for which the survivor count reads like this: (dose: 150.0 mg/kg/injection, schedule: Q01DX009 (ip), vehicle: saline with Tween-80) 2 of 6; (dose: 300.0 mg/kg/injection, schedule: Q01DX009 (ip), vehicle: saline with Tween-80) 0 of 6.

Consider `CC(=O)CC(=O)Nc1ccc(C(=O)O)c(O)c1`, for which the survivor count under setting [13] is 10 of 10.

`COc1cc2ccc3c(c2cc1OC)N(C)C(OC)c1cc2c(cc1-3)OCO2` (centres undefined): the T/C (dose: 5.0 mg/kg/injection, schedule: Q01DX009 (ip), vehicle: saline with Tween-80) was 125 % of control and the T/C (dose: 20.0 mg/kg/injection, schedule: Q01DX009 (ip), vehicle: saline with Tween-80) is 138 % of control. The survivor count by setting is: (dose: 40.0 mg/kg/injection, schedule: Q01DX009 (ip), vehicle: saline with Tween-80) 10 of 10; (dose: 80.0 mg/kg/injection, schedule: Q01DX009 (ip), vehicle: saline with Tween-80) 10 of 10.

As to `O=c1[nH]cnc2nc(/N=N/SCCO)[nH]c12`, the survivor count under setting [13] is listed as 5 of 10.

Consider `N#Cc1ncc(C(Cl)Cl)nc1Cl`, for which the survivor count was 5 of 10 under setting [5], 2 of 10 under setting [6] and 0 of 10 under setting [7].

For `Nc1nc(Br)c2ccccc2c1-c1ccc([N+](=O)[O-])cc1`, the survivor count was 10 of 10 under setting [12] and 10 of 10 (dose: 600.0 mg/kg/injection, schedule: Q01DX009 (ip), vehicle: saline with Tween-80).

`O=[N+]([O-])/C=C/c1ccc(Cl)cc1Cl`: the survivor count was 10 of 10 (dose: 50.0 mg/kg/injection, schedule: Q01DX009 (ip), vehicle: Klucel (hydroxypropylcellulose) (HPC)); 10 of 10 under setting [8]; 0 of 10 (dose: 200.0 mg/kg/injection, schedule: Q01DX009 (ip), vehicle: Klucel (hydroxypropylcellulose) (HPC)).

`O=C(O)CC(NC(=O)OCc1ccccc1)C(=O)O` (centres undefined): the survivor count reads like this: under setting [2], 6 of 10; under setting [9], 9 of 10; under setting [3], 9 of 10.

On to `COc1ccc(Oc2cc(CC3c4cc(OC)c(OC)cc4CCN3C)c([N+](=O)[O-])cc2OC)cc1OC` (centres undefined), for which the survivor count was 7 of 10 under setting [2], 0 of 10 under setting [9] and 0 of 10 under setting [3].
